Some of the results follow.
Compound: Cc1cc(ccc1-c1ccccc1)C(=O)N1CCCN(CC1)C(=O)CCl [compound 10]
Assay: probe-labelled cysteine peptide fold change vs DMSO (competition) (log2 fold change); higher = less target engagement (more negative = stronger competition)
Details: THP-1, incubation time: 4 h
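Further: competitive profiling in live THP-1 cells: cysteine peptides tagged with an iodoacetamide desthiobiotin (IA-DTB) probe, intensity after compound treatment relative to DMSO-treated cells.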

By UniProt entry, the sequences of proteins in these tests, tags left out. Where a name states a change or a piece, a line headed by the entry shows the natural chain unless it says otherwise.
UniProt Q9BTW9: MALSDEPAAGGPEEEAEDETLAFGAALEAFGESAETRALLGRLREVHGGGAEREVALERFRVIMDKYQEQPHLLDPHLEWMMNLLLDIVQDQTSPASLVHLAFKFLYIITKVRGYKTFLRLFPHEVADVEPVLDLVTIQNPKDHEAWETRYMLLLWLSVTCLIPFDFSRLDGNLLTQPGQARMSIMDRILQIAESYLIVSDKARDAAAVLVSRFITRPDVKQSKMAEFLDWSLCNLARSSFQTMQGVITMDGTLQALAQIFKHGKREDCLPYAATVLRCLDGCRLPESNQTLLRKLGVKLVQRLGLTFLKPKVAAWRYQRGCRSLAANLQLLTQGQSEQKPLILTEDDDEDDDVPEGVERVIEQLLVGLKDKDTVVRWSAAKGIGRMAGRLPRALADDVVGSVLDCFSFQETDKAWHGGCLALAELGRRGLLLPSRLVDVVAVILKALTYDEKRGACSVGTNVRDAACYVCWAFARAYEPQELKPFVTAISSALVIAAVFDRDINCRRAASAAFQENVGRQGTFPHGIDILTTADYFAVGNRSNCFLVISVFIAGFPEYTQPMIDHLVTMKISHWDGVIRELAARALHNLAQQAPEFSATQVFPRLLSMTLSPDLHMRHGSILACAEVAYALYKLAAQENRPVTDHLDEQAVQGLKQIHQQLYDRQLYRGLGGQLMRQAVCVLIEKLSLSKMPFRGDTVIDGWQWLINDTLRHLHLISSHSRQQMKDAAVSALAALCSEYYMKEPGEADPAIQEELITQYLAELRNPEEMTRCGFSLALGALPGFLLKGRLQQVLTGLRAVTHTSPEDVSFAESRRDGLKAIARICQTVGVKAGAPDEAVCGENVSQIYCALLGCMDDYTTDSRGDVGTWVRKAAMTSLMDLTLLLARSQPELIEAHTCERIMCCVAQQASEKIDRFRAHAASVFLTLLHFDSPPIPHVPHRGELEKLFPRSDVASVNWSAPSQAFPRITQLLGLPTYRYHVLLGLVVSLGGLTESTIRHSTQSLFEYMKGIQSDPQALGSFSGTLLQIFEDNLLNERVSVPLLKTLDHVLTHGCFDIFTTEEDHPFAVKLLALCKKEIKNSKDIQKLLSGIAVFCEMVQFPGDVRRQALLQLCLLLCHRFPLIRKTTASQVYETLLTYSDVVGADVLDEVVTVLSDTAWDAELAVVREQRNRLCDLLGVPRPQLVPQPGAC
UniProt Q9BW92: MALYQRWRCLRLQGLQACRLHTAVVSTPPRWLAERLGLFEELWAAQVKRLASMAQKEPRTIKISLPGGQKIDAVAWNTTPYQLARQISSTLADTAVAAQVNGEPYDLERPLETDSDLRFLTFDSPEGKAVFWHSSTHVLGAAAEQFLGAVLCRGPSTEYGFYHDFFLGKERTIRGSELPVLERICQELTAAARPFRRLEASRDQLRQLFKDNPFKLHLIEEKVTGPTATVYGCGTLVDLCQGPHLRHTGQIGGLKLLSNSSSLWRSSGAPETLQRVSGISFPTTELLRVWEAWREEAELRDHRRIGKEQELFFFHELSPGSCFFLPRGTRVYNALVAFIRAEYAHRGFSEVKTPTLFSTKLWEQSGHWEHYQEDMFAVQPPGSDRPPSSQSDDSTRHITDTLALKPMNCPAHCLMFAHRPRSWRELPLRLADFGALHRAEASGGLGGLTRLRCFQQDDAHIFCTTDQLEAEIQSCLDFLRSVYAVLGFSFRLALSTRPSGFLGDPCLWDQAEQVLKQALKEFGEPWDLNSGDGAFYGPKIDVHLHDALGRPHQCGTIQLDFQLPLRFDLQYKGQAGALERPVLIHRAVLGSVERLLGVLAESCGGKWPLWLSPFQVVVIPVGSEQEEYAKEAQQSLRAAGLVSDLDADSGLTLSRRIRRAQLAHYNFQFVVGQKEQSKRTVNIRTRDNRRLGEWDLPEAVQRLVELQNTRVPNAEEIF
UniProt Q9Y4P3: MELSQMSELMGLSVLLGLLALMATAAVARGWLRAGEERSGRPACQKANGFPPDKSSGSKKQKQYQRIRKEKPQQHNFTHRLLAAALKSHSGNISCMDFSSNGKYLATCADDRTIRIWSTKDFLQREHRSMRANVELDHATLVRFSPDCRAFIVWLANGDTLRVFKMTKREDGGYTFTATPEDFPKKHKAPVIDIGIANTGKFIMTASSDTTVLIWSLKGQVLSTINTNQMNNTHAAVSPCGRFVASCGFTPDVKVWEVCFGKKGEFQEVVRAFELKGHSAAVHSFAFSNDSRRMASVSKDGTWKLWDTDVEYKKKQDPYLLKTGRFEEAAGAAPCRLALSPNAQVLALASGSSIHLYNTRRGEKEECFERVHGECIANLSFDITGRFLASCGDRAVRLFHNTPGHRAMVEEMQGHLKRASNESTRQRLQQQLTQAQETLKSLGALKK
UniProt Q9NVR7: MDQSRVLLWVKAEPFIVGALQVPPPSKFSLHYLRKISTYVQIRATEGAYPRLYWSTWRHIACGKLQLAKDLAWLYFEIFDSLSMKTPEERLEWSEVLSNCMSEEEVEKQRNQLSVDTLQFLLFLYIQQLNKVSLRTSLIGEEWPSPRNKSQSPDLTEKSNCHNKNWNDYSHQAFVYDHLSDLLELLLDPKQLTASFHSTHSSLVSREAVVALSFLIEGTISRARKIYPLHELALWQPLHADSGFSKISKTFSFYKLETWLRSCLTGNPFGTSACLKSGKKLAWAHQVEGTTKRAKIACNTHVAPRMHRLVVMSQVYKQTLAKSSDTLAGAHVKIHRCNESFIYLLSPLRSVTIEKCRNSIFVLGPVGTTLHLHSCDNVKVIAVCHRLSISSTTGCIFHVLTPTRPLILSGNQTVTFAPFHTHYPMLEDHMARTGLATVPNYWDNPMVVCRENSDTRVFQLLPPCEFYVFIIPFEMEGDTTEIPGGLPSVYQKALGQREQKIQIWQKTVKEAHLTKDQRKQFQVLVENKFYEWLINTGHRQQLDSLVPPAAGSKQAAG
UniProt Q15560: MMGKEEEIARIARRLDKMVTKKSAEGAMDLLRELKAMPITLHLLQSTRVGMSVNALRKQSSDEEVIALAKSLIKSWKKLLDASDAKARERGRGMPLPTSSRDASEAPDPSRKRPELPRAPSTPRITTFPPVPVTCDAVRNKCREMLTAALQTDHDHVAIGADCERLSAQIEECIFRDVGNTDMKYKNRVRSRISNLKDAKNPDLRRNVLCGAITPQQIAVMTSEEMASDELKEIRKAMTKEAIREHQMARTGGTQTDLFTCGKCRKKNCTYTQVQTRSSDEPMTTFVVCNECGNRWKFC
UniProt Q9NVG8: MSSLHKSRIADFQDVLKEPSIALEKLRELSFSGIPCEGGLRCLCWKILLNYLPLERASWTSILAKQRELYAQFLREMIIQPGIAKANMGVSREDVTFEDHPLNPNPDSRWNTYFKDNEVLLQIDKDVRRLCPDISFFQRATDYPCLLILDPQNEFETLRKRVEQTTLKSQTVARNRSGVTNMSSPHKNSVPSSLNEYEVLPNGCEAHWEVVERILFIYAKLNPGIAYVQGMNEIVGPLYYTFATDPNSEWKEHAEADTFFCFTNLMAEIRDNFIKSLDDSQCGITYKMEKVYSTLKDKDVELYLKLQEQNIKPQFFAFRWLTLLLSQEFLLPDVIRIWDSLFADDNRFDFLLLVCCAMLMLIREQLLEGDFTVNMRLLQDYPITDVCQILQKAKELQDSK
UniProt Q9Y4C2: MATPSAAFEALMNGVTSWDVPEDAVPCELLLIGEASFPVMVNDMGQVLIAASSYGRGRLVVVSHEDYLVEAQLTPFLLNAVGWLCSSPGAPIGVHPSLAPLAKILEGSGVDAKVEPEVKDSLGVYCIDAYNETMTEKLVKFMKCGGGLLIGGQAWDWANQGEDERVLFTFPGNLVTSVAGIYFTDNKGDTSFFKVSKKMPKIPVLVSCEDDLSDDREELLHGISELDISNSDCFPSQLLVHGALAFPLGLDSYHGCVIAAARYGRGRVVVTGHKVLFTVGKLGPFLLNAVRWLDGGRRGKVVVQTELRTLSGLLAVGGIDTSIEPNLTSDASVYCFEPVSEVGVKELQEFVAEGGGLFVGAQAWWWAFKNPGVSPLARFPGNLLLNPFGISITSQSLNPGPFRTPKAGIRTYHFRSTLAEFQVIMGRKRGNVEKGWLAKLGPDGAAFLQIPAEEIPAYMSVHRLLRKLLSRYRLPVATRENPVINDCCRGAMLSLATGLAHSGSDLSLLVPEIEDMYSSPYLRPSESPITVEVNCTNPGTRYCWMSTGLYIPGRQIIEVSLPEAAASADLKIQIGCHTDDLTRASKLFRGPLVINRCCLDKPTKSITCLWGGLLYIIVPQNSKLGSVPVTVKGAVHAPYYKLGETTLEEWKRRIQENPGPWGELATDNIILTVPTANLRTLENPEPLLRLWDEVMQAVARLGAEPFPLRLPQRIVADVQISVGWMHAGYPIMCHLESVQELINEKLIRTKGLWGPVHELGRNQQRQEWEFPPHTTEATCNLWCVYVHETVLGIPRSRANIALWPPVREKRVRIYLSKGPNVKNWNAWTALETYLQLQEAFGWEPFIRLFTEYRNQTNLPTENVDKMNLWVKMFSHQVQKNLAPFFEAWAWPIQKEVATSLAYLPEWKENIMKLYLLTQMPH
UniProt Q15545, whole entry: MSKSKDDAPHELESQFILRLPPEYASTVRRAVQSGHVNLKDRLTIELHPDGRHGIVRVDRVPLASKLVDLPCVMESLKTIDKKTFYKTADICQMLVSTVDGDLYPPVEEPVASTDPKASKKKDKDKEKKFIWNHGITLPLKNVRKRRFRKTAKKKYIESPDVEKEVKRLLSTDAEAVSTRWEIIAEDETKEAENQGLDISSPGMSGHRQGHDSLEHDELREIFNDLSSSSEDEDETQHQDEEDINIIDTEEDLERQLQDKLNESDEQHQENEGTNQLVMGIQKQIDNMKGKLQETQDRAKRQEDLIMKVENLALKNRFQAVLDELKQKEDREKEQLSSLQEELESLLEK
UniProt P62380: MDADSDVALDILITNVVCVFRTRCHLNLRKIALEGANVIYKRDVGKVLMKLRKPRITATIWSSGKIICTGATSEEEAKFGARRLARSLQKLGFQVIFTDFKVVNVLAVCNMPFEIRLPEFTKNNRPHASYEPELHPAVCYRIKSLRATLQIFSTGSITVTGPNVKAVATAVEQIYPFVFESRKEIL
UniProt Q99426: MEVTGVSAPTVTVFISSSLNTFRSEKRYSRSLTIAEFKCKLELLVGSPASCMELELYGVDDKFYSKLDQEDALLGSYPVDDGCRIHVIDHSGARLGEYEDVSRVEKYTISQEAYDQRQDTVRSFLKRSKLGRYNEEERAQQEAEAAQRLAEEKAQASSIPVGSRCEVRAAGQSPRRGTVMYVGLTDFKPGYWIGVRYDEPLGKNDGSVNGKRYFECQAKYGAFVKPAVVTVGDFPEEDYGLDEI
UniProt Q66K14, whole entry, looked up: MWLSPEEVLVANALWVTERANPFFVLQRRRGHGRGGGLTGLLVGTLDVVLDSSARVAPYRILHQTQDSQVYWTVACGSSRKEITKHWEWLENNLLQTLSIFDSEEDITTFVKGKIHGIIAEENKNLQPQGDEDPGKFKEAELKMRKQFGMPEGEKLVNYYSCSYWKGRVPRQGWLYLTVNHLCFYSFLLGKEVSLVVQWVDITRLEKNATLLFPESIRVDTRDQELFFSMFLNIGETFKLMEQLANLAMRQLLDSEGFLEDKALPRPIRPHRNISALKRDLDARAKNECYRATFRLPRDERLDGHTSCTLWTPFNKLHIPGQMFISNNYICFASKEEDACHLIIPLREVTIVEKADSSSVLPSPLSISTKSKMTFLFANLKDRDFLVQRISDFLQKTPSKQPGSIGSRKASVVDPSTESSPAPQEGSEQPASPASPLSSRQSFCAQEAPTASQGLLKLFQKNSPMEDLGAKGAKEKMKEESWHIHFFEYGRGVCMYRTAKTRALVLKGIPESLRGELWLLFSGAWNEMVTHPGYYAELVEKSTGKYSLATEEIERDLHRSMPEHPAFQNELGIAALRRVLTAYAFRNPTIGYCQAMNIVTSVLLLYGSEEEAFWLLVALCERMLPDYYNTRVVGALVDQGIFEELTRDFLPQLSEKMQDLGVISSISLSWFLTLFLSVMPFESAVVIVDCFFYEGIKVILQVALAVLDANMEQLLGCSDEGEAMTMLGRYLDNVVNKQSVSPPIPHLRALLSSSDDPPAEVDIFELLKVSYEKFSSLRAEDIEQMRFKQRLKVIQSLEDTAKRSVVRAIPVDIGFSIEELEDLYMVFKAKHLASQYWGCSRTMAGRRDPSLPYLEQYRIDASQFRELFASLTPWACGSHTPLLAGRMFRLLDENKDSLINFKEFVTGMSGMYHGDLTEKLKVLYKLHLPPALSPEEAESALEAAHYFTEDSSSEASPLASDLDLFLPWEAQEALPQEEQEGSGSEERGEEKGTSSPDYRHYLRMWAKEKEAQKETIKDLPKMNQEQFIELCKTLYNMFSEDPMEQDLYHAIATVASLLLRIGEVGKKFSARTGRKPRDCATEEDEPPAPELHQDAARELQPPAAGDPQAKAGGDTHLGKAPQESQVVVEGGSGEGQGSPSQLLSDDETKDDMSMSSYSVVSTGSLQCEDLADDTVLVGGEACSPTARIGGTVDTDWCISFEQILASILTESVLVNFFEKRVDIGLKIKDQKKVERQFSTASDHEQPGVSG

| Target | probe-labelled cysteine peptide fold change (10 µM) | probe-labelled cysteine peptide fold change (50 µM) |
| --- | --- | --- |
| TBCD_Q9BTW9_420_AWHGGCLALAELGRR (UniProt Q9BTW9) | -0.0255 | -0.156 |
| TARS2_Q9BW92_322_IGKEQELFFFHELSPGSCFFLPR (UniProt Q9BW92) | -0.0453 | -0.425 |
| TARS_P26639_261_CGPLIDLCR (UniProt P26639) | 0.0971 | 0.248 |
| TBL2_Q9Y4P3_247_FVASCGFTPDVK (UniProt Q9Y4P3) | -0.438 | -0.381 |
| TAF2_Q6P1X5_357_CLAQSLAQQFFGCFISR (UniProt Q6P1X5) | 0.129 | 0.279 |
| TBCCD1_Q9NVR7_337_CNESFIYLLSPLR (UniProt Q9NVR7) | 0.178 | 0.422 |
| TCEA2_Q15560_163_EMLTAALQTDHDHVAIGADCER (UniProt Q15560) | 0.0225 | -0.12 |
| TARSL2_A2RTX5_74_LCLAEER (UniProt A2RTX5) | 0.00859 | -0.0923 |
| TBC1D13_Q9NVG8_261_EHAEADTFFCFTNLMAEIR (UniProt Q9NVG8) | 0.226 | 0.151 |
| TARS_P26639_467_RFQQDDAHIFCAMEQIEDEIK (UniProt P26639) | 0.126 | 0.326 |
| TBL3_Q12788_413_AGQVMCVAQGSGHTHSVGTVCCSR (UniProt Q12788) | 0.169 | 0.277 |
| TCF25_Q9BQ70_540_EPATMSWLEENVHEVLQAVDAGDPAVEACENRR (UniProt Q9BQ70) | -0.186 | 0.168 |
| TAF12_Q16514_143_ACTTEAHK (UniProt Q16514) | -0.109 | -0.272 |
| TAOK1_Q7L7X3_730_QFQDTCK (UniProt Q7L7X3) | 0.127 | -0.114 |
| TAP2_Q03519_353_SFGAEEHEVCR (UniProt Q03519) | -0.184 | -0.261 |
| SYNRG_Q9UMZ2_625_NPLNLADLDMFSSVNCSSEK (UniProt Q9UMZ2) | -0.205 | -0.356 |
| TAOK2_Q9UL54_623_EQLQQCQAEEEAGLLRR (UniProt Q9UL54) | -0.0287 | -0.14 |
| TCAF1_Q9Y4C2_576_IQIGCHTDDLTR (UniProt Q9Y4C2) | 0.111 | -0.0345 |
| TAF7_Q15545_72_LVDLPCVMESLK (UniProt Q15545) | -0.167 | -0.415 |

| Target | probe-labelled cysteine peptide fold change (10 µM) | probe-labelled cysteine peptide fold change (50 µM) |
| --- | --- | --- |
| TBC1D1_Q86TI0_701_SPLEPVCEDGPFGPPPEEK (UniProt Q86TI0) | -0.31 | 0.0357 |
| TBC1D4_O60343_74_SQKPEAGGCGAPAAR (UniProt O60343) | -0.579 | -1.59 |
| TACC1_O75410_78_ESCDPSLGLAGPGAK (UniProt O75410) | -0.249 | -0.232 |
| SZT2_Q5T011_1460_TVPSNPHYFFYCPPSSR (UniProt Q5T011) | 0.093 | 0.233 |
| TBCD_Q9BTW9_457_RGACSVGTNVR (UniProt Q9BTW9) | -0.156 | 0.105 |
| TACC3_Q9Y6A5_236_AETPHGAEEECR (UniProt Q9Y6A5) | 0.141 | 0.144 |
| TBPL1_P62380_24_CHLNLR (UniProt P62380) | 0.00768 | 0.105 |
| TADA1_Q96BN2_139_LCSHTMMLPTR (UniProt Q96BN2) | -0.18 | -0.121 |
| TACC3_Q9Y6A5_749_CVEDYLAR (UniProt Q9Y6A5) | -0.0754 | 0.0488 |
| TBC1D13_Q9NVG8_387_LLQDYPITDVCQILQK (UniProt Q9NVG8) | -0.0681 | -0.374 |
| TBCB_Q99426_51_LELLVGSPASCMELELYGVDDK (UniProt Q99426) | 0.0991 | 0.421 |
| TANC1_Q9C0D5_1023_GHGDILQYLLTCEWSPGPPQPGTLR (UniProt Q9C0D5) | 0.123 | 0.518 |
| TACO1_Q9BSH4_256_KLDSLGLCSVSCALEFIPNSK (UniProt Q9BSH4) | -0.242 | -0.347 |
| TARS_P26639_137_VNNVVWDLDRPLEEDCTLELLKFEDEEAQAVYWHSSAHIMGEAMER (UniProt P26639) | -0.123 | -0.673 |
| TAOK3_Q9H2K8_795_LDEAQEAECQALR (UniProt Q9H2K8) | 0.0475 | 0.356 |
| TCEA1_P23193_212_KNVLCGNIPPDLFAR (UniProt P23193) | 0.154 | -0.139 |
| TARS2_Q9BW92_322_EQELFFFHELSPGSCFFLPR (UniProt Q9BW92) | 0.235 | 0.288 |
| TBCE_Q15813_301_LEQLILSDTGISSLHFPDAGIGCK (UniProt Q15813) | 0.043 | -0.11 |
| TBC1D9B_Q66K14_162_LVNYYSCSYWK (UniProt Q66K14) | 0.216 | 0.206 |

— the supplement of paper PMC12067093, “Discovery and optimisation of a covalent ligand for TRIM25 and its application to targeted protein ubiquitination” (Chemical Science, 2025)
